PubChem BioAssay AID1259254 | NCATS | 2017
Shown is a random part of about 59,000 reagents tested. About 1,550 of all reagents (2.6%) were called active. 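G2 share is only a proxy for re-replication; each gene was hit by three separate siRNAs, and active genes were retested.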 Reagents against one gene are numbered here. Not all columns of the deposit are shown. Not given: the amount of reagent.

Assay: 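Finding genes that stop cells copying their DNA twice in one cycle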 (primary screen)
Cell system: human HCT116 colorectal cancer cells
Reagent: single siRNA against human genes
Timing: 3 days
Detection: 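Imaged Hoechst DNA stain sorts each cell into a cycle phase by DNA amount; per plate, G2 fraction set to 0% for non-targeting and 100% for GMNN siRNA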
Reading the numbers: G2 robust z-score and G2 cells, % of GMNN control: higher = more G2 cells, more excess DNA replication
Rule for the call: 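An siRNA counts as active if its G2 robust z-score lies at least 5 MADs above the screen median; here such calls match roughly 38% of GMNN control or more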

| Target gene | reagent no. | G2 robust z-score | G2 cells, % of GMNN control | Outcome |
| --- | --- | --- | --- | --- |
| HTATSF1P2 (HIV-1 Tat specific factor 1 pseudogene 2) | 1 | -0.276 | 1.02 | inactive |
| HTATSF1P2 (HIV-1 Tat specific factor 1 pseudogene 2) | 2 | -1.26 | -5.9 | inactive |
| HTATSF1P2 (HIV-1 Tat specific factor 1 pseudogene 2) | 3 | 1.52 | 13.7 | inactive |
| DAG1 (dystroglycan 1) | 1 | 2.75 | 22.3 | inactive |
| DAG1 (dystroglycan 1) | 2 | -0.235 | 1.32 | inactive |
| DAG1 (dystroglycan 1) | 3 | 7.65 | 56.8 | active |
| PRSS16 (serine protease 16) | 1 | 0.519 | 6.62 | inactive |
| PRSS16 (serine protease 16) | 2 | 2.06 | 17.5 | inactive |
| PRSS16 (serine protease 16) | 3 | -0.6 | -1.26 | inactive |
| IGF2-AS (IGF2 antisense RNA) | 1 | 4.03 | 31.3 | inactive |
| IGF2-AS (IGF2 antisense RNA) | 2 | -0.247 | 1.23 | inactive |
| IGF2-AS (IGF2 antisense RNA) | 3 | -0.662 | -1.69 | inactive |
| FBXO28 (F-box protein 28) | 1 | 1.09 | 10.6 | inactive |
| FBXO28 (F-box protein 28) | 2 | 0.417 | 5.9 | inactive |
| FBXO28 (F-box protein 28) | 3 | -0.0713 | 2.47 | inactive |
| VPS26C (VPS26 endosomal protein sorting factor C) | 1 | -1.17 | -5.23 | inactive |
| VPS26C (VPS26 endosomal protein sorting factor C) | 2 | 3.23 | 25.7 | inactive |
| VPS26C (VPS26 endosomal protein sorting factor C) | 3 | -0.254 | 1.18 | inactive |
| SOX7 (SRY-box transcription factor 7) | 1 | -0.544 | -0.861 | inactive |
| SOX7 (SRY-box transcription factor 7) | 2 | 0.985 | 9.9 | inactive |
| SOX7 (SRY-box transcription factor 7) | 3 | 0.86 | 9.01 | inactive |
| ANKRD20A5P (ankyrin repeat domain 20 family member A5, pseudogene) | 1 | 0.279 | 4.93 | inactive |
| ANKRD20A5P (ankyrin repeat domain 20 family member A5, pseudogene) | 2 | 1.45 | 13.2 | inactive |
| ANKRD20A5P (ankyrin repeat domain 20 family member A5, pseudogene) | 3 | -0.573 | -1.07 | inactive |
| ST8SIA4 (ST8 alpha-N-acetyl-neuraminide alpha-2,8-sialyltransferase 4) | 1 | 1.06 | 10.5 | inactive |
| ST8SIA4 (ST8 alpha-N-acetyl-neuraminide alpha-2,8-sialyltransferase 4) | 2 | -0.767 | -2.43 | inactive |
| ST8SIA4 (ST8 alpha-N-acetyl-neuraminide alpha-2,8-sialyltransferase 4) | 3 | -0.43 | -0.0554 | inactive |
| MAGEF1 (MAGE family member F1) | 1 | 3.74 | 29.3 | inactive |
| MAGEF1 (MAGE family member F1) | 2 | 1.2 | 11.4 | inactive |
| MAGEF1 (MAGE family member F1) | 3 | -1.07 | -4.54 | inactive |
| VWDE (von Willebrand factor D and EGF domains) | 1 | -0.246 | 1.24 | inactive |
| VWDE (von Willebrand factor D and EGF domains) | 2 | -0.0865 | 2.36 | inactive |
| VWDE (von Willebrand factor D and EGF domains) | 3 | -0.52 | -0.692 | inactive |
| ZC3H15 (zinc finger CCCH-type containing 15) | 1 | 1.23 | 11.6 | inactive |
| ZC3H15 (zinc finger CCCH-type containing 15) | 2 | 0.519 | 6.62 | inactive |
| ZC3H15 (zinc finger CCCH-type containing 15) | 3 | -0.516 | -0.665 | inactive |
| PRXL2C (peroxiredoxin like 2C) | 1 | -0.527 | -0.741 | inactive |
| PRXL2C (peroxiredoxin like 2C) | 2 | -0.653 | -1.63 | inactive |
| PRXL2C (peroxiredoxin like 2C) | 3 | 0.367 | 5.55 | inactive |
| BLTP1 (bridge-like lipid transfer protein family member 1) | 1 | -0.852 | -3.03 | inactive |
| BLTP1 (bridge-like lipid transfer protein family member 1) | 2 | -0.784 | -2.55 | inactive |
| BLTP1 (bridge-like lipid transfer protein family member 1) | 3 | -0.401 | 0.143 | inactive |
| NUCKS1 | 1 | 2.35 | 19.5 | inactive |
| NUCKS1 | 2 | -0.0655 | 2.51 | inactive |
| NUCKS1 | 3 | -0.531 | -0.77 | inactive |
| TAS2R14 (taste 2 receptor member 14) | 1 | 1.32 | 12.3 | inactive |
| TAS2R14 (taste 2 receptor member 14) | 2 | 0.117 | 3.79 | inactive |
| TAS2R14 (taste 2 receptor member 14) | 3 | 1.96 | 16.8 | inactive |
| PIH1D1 (PIH1 domain containing 1) | 1 | -0.143 | 1.96 | inactive |
| PIH1D1 (PIH1 domain containing 1) | 2 | -0.903 | -3.39 | inactive |
| PIH1D1 (PIH1 domain containing 1) | 3 | -0.878 | -3.21 | inactive |
| AXL (AXL receptor tyrosine kinase) | 1 | -1.1 | -4.78 | inactive |
| AXL (AXL receptor tyrosine kinase) | 2 | 0.955 | 9.69 | inactive |
| AXL (AXL receptor tyrosine kinase) | 3 | -0.154 | 1.88 | inactive |
| ZNF440 (zinc finger protein 440) | 1 | -0.226 | 1.37 | inactive |
| ZNF440 (zinc finger protein 440) | 2 | 0.853 | 8.97 | inactive |
| ZNF440 (zinc finger protein 440) | 3 | 2.21 | 18.5 | inactive |
| TMIGD2 (transmembrane and immunoglobulin domain containing 2) | 1 | -0.837 | -2.92 | inactive |
| TMIGD2 (transmembrane and immunoglobulin domain containing 2) | 2 | -0.385 | 0.257 | inactive |
| TMIGD2 (transmembrane and immunoglobulin domain containing 2) | 3 | 0.0892 | 3.6 | inactive |
| ADAM33 (ADAM metallopeptidase domain 33) | 1 | -1.12 | -4.94 | inactive |
| ADAM33 (ADAM metallopeptidase domain 33) | 2 | 1.83 | 15.8 | inactive |
| ADAM33 (ADAM metallopeptidase domain 33) | 3 | 5.8 | 43.7 | active |
| COL24A1 (collagen type XXIV alpha 1 chain) | 1 | 2.75 | 22.3 | inactive |
| COL24A1 (collagen type XXIV alpha 1 chain) | 2 | -0.307 | 0.805 | inactive |
| COL24A1 (collagen type XXIV alpha 1 chain) | 3 | -0.176 | 1.73 | inactive |
| ITIH1 (inter-alpha-trypsin inhibitor heavy chain 1) | 1 | -0.834 | -2.9 | inactive |
| ITIH1 (inter-alpha-trypsin inhibitor heavy chain 1) | 2 | 1.6 | 14.2 | inactive |
| ITIH1 (inter-alpha-trypsin inhibitor heavy chain 1) | 3 | 0.00132 | 2.98 | inactive |

Entries listed so far whose target name starts with Z or z (6):
| Target gene | reagent no. | G2 robust z-score | G2 cells, % of GMNN control | Outcome |
| --- | --- | --- | --- | --- |
| ZC3H15 (zinc finger CCCH-type containing 15) | 1 | 1.23 | 11.6 | inactive |
| ZC3H15 (zinc finger CCCH-type containing 15) | 2 | 0.519 | 6.62 | inactive |
| ZC3H15 (zinc finger CCCH-type containing 15) | 3 | -0.516 | -0.665 | inactive |
| ZNF440 (zinc finger protein 440) | 1 | -0.226 | 1.37 | inactive |
| ZNF440 (zinc finger protein 440) | 2 | 0.853 | 8.97 | inactive |
| ZNF440 (zinc finger protein 440) | 3 | 2.21 | 18.5 | inactive |
